Laboratory results reported in paper PMC3925316.
Results are given in words; binding and its absence hold for the method and conditions named. Binding seen in cells or lysates may run through a third protein. Some binding calls cover weakened binding; strength is not graded here.

Chains of the proteins cited; added tags and fusions are not shown. Lines headed by an entry give the natural chain unless they say otherwise; changes in a name come on top. A line that says so, or that is headed by a name, gives the form on record, which may keep a tag or linker. Residues count along the entry.
LOXL2-Flag (Q9Y4K0, residues 26-774): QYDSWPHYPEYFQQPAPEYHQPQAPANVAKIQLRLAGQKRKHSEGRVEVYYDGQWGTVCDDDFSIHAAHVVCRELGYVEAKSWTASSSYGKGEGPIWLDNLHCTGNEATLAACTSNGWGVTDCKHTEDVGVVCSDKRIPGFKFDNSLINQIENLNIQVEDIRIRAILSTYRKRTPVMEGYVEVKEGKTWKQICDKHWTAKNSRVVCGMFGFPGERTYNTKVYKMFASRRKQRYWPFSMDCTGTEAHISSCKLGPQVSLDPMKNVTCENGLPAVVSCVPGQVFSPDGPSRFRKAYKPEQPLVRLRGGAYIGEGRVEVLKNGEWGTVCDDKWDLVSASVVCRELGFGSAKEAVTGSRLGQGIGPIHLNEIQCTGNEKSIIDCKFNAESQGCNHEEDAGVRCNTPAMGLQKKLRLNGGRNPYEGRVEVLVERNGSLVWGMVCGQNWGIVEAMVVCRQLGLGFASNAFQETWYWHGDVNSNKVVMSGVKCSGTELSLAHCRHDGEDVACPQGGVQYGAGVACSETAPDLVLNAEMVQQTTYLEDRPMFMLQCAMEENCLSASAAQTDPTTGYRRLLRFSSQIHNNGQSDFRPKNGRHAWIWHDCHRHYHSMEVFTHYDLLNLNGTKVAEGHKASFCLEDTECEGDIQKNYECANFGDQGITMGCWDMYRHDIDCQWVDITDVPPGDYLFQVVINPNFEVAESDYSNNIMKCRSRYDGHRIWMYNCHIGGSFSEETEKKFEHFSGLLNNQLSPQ
LOXL2-H626/628Q-HA (Q9Y4K0, form named): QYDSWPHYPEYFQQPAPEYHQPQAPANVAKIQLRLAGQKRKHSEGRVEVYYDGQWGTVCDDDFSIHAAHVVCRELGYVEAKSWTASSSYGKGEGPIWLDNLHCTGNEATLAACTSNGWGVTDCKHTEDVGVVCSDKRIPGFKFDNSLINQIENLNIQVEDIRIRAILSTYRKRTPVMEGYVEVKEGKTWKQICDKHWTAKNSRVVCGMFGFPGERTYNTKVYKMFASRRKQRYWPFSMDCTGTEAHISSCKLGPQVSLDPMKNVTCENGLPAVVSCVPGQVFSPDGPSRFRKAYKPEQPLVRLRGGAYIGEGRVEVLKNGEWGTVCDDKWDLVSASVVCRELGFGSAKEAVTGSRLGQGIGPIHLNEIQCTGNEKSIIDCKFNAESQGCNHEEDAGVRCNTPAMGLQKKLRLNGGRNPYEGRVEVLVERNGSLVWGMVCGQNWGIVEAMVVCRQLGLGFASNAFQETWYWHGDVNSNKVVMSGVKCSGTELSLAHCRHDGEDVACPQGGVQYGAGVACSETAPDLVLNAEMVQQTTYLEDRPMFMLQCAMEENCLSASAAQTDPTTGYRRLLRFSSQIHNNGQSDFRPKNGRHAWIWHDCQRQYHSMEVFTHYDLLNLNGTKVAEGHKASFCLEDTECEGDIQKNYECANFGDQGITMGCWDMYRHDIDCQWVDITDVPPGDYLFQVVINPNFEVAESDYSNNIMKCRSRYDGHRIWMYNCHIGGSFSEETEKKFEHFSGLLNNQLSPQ
LOXL2-Δ547-667-Flag (P58022, form named): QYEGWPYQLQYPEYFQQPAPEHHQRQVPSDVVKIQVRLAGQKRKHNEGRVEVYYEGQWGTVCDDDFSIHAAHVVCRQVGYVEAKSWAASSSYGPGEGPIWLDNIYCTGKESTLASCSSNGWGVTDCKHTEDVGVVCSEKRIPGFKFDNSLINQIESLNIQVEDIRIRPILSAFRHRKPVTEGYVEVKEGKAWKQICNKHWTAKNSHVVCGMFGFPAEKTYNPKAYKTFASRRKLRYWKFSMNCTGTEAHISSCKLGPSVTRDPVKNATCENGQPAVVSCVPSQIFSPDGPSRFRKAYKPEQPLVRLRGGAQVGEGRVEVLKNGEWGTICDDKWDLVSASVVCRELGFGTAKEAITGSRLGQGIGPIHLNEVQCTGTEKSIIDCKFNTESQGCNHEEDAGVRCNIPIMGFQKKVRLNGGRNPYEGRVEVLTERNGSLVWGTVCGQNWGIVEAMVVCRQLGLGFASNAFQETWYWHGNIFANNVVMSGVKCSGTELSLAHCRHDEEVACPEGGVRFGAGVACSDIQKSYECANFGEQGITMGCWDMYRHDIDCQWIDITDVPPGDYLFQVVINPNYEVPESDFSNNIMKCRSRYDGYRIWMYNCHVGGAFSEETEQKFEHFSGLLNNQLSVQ
UniProt O95863: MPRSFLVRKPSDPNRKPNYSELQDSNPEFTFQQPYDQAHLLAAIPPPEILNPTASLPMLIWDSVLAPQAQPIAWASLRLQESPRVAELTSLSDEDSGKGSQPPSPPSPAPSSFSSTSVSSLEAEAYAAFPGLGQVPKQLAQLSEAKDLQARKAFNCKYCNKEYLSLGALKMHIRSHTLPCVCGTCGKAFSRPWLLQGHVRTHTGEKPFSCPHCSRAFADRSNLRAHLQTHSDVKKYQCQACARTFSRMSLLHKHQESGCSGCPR

Assays:
Experiment in all cases: co-IP; whole cell extracts of HEK293T cells transiently co-transfected with Snail1-HA and a LOXL2 variant; immunoprecipitated with anti-Flag M2 affinity gel (LOXL2, ΔLOXL2) or anti-LOXL2 antibody (H626/628Q); Western blot with anti-LOXL2 or anti-HA
LOXL2-Flag (human) = LOXL2-Flag (human) (UniProt Q9Y4K0)
[1] = target: LOXL2-H626/628Q-HA (human) (UniProt Q9Y4K0)
[2] = target: LOXL2-Δ547-667-Flag (mouse) (UniProt P58022)

Measured: binding

Snail1-HA (from UniProt O95863 1-264)
binds: all assays above
